The source of these data is publication PMC9949351, “Chromatin localization of nucleophosmin organizes ribosome biogenesis” (Molecular cell, 2022).

No constants are given. Whether binding was seen depends on the method and setting. Binding seen in cells or lysates may run through a third protein. Here binding means that the protein was enriched with, or labelled near, the bait; the list need not be complete. Where a sequence is shown, tags or fusion partners need not be part of it.

The target of assay [1] is T1, tagged endogenous Fkbp41 (S. pombe) (UniProt Q10175).
T1 sequence: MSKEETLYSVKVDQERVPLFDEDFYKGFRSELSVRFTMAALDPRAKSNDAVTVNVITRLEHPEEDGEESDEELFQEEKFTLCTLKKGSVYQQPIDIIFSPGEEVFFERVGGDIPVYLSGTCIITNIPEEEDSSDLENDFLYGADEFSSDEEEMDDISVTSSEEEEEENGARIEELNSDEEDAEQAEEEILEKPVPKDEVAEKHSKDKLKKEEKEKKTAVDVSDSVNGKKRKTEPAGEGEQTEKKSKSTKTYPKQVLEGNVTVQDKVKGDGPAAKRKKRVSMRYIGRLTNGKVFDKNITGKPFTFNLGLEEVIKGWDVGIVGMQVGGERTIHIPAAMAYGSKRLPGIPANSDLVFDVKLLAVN
The assay can be described thus: affinity purification with mass spectrometry; endogenously tagged bait (Fkbp39-FLAG from wild-type and fkbp41Δ cells; FLAG-Ytm1 and tagged Fkbp41 from wild-type and fkbp39Δ cells; Nop1) from nuclease-treated S. pombe lysate on anti-FLAG M2 affinity gel, 100 mM NaCl, 7.5 mM MgCl2, Na phosphate pH 8, 0.1% Nonidet P40, eluted with 3XFLAG peptide; SDS-PAGE and mass spectrometry.

Assay [2] concerns the target T2, endogenously FLAG-tagged Fkbp39 (S. pombe) (UniProt O74191).
T2 sequence: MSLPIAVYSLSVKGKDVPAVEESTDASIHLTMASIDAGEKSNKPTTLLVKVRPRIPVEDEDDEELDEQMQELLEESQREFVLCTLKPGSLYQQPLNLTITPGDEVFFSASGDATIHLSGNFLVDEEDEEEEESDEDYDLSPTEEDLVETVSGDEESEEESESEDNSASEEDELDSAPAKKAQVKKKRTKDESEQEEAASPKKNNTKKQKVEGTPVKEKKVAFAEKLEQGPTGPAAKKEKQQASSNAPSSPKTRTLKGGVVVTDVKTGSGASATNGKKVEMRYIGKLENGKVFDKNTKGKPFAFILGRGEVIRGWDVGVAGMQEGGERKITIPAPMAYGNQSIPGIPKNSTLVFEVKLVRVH
Described as above.

In the case of Leo1 (S. pombe), the binding entry in assay [1] is “binds”.

B1: Fkbp41 (found with Fkbp39-FLAG in S. pombe) (protein, UniProt Q10175 1-362)
chain: T1 sequence
As for B1, in assay [2], the binding result is reported as “binds”.

B2: Ytm1 (protein, UniProt Q9URY0 1-440)
chain: MDAQSAPSGQVQVRFTTRNEDLAVGDTPIFVPTSLKRYGLSQIVNHLLKTEKPTPFDFLVQGQLLKTTLDEYIVQNGLSTESILDIEYIQSTLPPAYLASFSHDDWISGIQLTSDTILTSSYDGIARVWDKSGEIKFQSTGCGSSLKSASWHIPNQSFLTASLDQKIFHWVIEEPESMLDAEKKSSGILQTLFVGHKDIVERVRSLESSSVFISASADNTVGIWDFERSPETTLESFSSSISKKRRRKNAEFTPQAGARSPLILCEGHTGPVMDIVFSDDPSVAYSVGQDHTIKTWDLITGQNVDSKITKAPLLCVEKLTDLHLVICGSSARHIVVHDPRAGSDKIVSHTLSGHKNLVSGLSASPENPYMFASVSHDNTCRVWDVRATSGSIYTISRAEKTGSQWDKLFAVDWNKSIGIVTGGTDKQLQINQSSSFGKSE
With B2, the binding entry in assay [1] is given as “binds”.
